The values below come from paper doi:10.1101/2025.01.09.632080.

Chains of the proteins cited; added tags and fusions are not shown.
UniProt O60826: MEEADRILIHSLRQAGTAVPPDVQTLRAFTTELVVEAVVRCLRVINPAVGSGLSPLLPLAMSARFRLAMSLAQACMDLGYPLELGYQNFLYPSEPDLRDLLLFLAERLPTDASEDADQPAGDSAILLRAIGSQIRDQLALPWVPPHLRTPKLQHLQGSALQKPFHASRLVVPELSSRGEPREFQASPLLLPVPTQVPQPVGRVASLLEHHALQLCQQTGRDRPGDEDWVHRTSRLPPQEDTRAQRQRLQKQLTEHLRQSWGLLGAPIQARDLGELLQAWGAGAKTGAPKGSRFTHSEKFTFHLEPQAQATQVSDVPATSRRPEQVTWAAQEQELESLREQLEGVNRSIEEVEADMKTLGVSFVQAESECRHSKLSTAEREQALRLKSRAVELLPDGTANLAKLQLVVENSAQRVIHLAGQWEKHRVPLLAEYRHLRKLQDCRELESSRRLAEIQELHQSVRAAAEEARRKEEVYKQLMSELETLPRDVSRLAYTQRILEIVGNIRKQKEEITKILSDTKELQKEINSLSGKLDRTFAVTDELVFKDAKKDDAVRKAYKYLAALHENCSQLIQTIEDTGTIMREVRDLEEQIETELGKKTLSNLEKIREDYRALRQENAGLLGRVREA

Test [1] concerns the target TRIM72, endogenous in mouse tissues (mouse (endogenous in skeletal muscle and cortex)) (UniProt Q1XH17). The test can be described thus: SDS-PAGE and western blot of tissue lysate. (In general: Immunoblotting shows a protein as a band on a membrane.)
For test [2], the target named is C-terminal Myc-tagged CCDC22 (CCDC22-Myc) (UniProt O60826). The test can be described thus: co-IP.

These are yes or no findings as the source states them, for the method shown. For some assays here: Binding seen in cells or lysates may run through a third protein. Some entries that bind do so weakly or less than the wild type. For some assays here: Tags and fused reporters may be left off the sequences shown.

B1: TRIM72, endogenous in mouse tissues (protein, UniProt Q1XH17 1-477)
chain: MSAAPGLLRQELSCPLCLQLFDAPVTAECGHSFCRACLIRVAGEPAADGTVACPCCQAPTRPQALSTNLQLSRLVEGLAQVPQGHCEEHLDPLSIYCEQDRTLVCGVCASLGSHRGHRLLPAAEAQARLKTQLPQQKMQLQEACMRKEKTVAVLEHQLVEVEETVRQFRGAVGEQLGKMRMFLAALESSLDREAERVRGDAGVALRRELSSLNSYLEQLRQMEKVLEEVADKPQTEFLMKFCLVTSRLQKILSESPPPARLDIQLPVISDDFKFQVWKKMFRALMPALEELTFDPSSAHPSLVVSSSGRRVECSDQKAPPAGEDTRQFDKAVAVVAQQLLSQGEHYWEVEVGDKPRWALGVMAADASRRGRLHAVPSQGLWLLGLRDGKILEAHVEAKEPRALRTPERPPARIGLYLSFADGVLAFYDASNPDVLTPIFSFHERLPGPVYPIFDVCWHDKGKNAQPLLLVGPEQEQA
Turning to B1, the binding result in test [1] is on record as “binds”.

B2: EGFP-TRIM72 (protein, UniProt Q6ZMU5 1-477)
chain: MSAAPGLLHQELSCPLCLQLFDAPVTAECGHSFCRACLGRVAGEPAADGTVLCPCCQAPTRPQALSTNLQLARLVEGLAQVPQGHCEEHLDPLSIYCEQDRALVCGVCASLGSHRGHRLLPAAEAHARLKTQLPQQKLQLQEACMRKEKSVAVLEHQLVEVEETVRQFRGAVGEQLGKMRVFLAALEGSLDREAERVRGEAGVALRRELGSLNSYLEQLRQMEKVLEEVADKPQTEFLMKYCLVTSRLQKILAESPPPARLDIQLPIISDDFKFQVWRKMFRALMPALEELTFDPSSAHPSLVVSSSGRRVECSEQKAPPAGEDPRQFDKAVAVVAHQQLSEGEHYWEVDVGDKPRWALGVIAAEAPRRGRLHAVPSQGLWLLGLREGKILEAHVEAKEPRALRSPERRPTRIGLYLSFGDGVLSFYDASDADALVPLFAFHERLPRPVYPFFDVCWHDKGKNAQPLLLVGPEGAEA
Regarding B2, the binding result in test [2] is “binds”.
